# These are yes or no findings as the source states them, for the method shown. In cells and extracts the contact can be indirect. A yes stands for co-enrichment or nearness to the bait. Other partners may have been found.
# The chains behind the UniProt entries cited, without tags or fusion partners.
# UniProt Q00610: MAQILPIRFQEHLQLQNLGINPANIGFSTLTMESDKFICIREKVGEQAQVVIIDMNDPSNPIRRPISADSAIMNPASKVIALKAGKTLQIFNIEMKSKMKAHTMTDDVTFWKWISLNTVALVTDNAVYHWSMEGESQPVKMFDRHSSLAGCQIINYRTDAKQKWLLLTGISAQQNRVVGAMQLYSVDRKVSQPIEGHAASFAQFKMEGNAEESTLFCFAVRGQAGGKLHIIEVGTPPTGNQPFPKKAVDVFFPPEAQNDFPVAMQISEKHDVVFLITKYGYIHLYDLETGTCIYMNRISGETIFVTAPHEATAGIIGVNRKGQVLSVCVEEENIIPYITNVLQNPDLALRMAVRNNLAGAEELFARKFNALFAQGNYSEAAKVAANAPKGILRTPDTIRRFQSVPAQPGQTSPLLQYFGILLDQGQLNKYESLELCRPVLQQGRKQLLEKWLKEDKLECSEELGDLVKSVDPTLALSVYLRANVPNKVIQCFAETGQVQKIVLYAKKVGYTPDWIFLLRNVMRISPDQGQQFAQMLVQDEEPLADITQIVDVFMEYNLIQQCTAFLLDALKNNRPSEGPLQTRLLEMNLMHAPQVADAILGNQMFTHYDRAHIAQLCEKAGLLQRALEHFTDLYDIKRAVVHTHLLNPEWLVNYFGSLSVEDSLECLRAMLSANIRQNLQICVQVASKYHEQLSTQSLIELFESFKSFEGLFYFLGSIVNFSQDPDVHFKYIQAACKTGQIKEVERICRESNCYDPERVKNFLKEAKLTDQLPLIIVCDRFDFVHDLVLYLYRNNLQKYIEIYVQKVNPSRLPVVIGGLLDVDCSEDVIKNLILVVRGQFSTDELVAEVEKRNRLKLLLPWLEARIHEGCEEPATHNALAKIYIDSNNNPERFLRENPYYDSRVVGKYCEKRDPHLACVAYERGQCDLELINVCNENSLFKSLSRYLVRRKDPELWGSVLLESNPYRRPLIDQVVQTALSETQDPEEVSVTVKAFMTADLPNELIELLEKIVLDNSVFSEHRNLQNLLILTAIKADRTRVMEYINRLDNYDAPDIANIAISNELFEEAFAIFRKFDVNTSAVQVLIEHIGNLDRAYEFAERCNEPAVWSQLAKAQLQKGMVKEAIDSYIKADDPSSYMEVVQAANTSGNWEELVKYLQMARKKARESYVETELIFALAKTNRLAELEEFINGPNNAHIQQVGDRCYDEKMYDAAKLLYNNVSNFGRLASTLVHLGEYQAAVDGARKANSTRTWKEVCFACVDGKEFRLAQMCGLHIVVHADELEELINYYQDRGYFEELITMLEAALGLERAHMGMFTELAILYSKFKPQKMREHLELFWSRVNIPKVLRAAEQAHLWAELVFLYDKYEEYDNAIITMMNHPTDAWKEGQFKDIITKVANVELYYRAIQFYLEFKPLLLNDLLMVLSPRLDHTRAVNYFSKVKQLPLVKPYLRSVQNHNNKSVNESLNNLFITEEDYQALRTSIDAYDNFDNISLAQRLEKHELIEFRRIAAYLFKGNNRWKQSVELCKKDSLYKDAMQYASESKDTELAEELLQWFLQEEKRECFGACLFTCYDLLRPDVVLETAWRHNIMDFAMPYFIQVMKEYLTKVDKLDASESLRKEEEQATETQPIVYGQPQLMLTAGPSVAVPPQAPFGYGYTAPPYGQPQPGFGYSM
# UniProt P09874: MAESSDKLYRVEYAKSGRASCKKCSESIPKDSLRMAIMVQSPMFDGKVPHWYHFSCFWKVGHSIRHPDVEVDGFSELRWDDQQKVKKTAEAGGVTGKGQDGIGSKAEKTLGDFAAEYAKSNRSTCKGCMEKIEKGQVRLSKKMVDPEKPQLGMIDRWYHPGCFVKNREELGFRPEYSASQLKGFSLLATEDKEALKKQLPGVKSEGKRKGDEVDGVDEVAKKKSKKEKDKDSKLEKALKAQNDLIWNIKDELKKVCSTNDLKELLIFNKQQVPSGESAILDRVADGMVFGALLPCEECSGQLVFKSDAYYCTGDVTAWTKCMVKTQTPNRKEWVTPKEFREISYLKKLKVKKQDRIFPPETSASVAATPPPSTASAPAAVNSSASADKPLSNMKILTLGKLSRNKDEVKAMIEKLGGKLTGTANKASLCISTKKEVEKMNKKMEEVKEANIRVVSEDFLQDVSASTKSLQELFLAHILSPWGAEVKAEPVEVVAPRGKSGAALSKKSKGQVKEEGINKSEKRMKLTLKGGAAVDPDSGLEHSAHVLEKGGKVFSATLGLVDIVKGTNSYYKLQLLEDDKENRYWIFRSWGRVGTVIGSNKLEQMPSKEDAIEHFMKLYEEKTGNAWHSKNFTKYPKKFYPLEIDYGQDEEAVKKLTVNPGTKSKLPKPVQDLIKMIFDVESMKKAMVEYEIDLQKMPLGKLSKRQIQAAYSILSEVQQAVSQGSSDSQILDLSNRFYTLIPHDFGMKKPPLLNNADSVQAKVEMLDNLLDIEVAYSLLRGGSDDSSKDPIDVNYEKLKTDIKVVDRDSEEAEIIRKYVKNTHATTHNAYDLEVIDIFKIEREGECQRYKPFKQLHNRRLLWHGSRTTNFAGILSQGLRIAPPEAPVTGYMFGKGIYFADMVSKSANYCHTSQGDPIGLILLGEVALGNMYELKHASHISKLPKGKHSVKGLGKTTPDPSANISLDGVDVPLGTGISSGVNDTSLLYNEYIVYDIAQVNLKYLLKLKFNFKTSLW
# Columns and labels:
# [1] = molecular target: hepatocyte growth factor receptor (MET), endogenous (human (endogenous in HepG2)) (UniProt P08581); assay: affinity purification with mass spectrometry; extracts of HepG2 cells, endogenous MET immunoprecipitated, LC-MS/MS; candidates bound the MET beads but not the isotype control and overlapped with the Flag-MET data set
# [2] = molecular target: Flag-tagged MET protein (Flag-MET) (UniProt P08581); assay: affinity purification with mass spectrometry; extracts of 293T cells expressing Flag-MET, immunoprecipitated, LC-MS/MS; candidates bound the Flag-MET-immobilized beads but not the isotype control and overlapped with the endogenous MET data set
binding [1],binding [2],Substance
binds,binds,clathrin heavy chain (CLTC) (from UniProt Q00610 1-1675)
binds,binds,poly (ADP-ribose) polymerase 1 (PARP1) (from UniProt P09874 1-1014)

# From article PMC7414041
